{"sequences": {"note": "Amino acid sequences for entries named in this document (tags omitted). Residues count along the entry.", "UniProt Q8I1Y0, residues 21-368": "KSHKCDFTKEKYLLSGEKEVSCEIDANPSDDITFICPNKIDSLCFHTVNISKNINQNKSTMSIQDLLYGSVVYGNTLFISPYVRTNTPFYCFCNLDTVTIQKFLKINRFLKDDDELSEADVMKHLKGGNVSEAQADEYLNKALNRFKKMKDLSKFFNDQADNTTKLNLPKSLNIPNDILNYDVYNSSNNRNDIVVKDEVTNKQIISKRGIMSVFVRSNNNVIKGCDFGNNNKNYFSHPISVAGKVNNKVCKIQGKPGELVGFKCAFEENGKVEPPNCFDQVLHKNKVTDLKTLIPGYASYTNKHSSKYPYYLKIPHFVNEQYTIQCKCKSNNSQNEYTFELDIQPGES"}, "source": "paper PMC7886318", "about": "“Nanobody generation and structural characterization of Plasmodium falciparum 6-cysteine protein Pf12p” (Biochemical Journal, 2021)", "binders": {"B1": {"name": "Pf12p D1D2 (domain or fragment, UniProt C6KSX1 24-341)", "chain": "NGVCDFSSEGLSLLPEEKLDFSVSRNVDKLSDENNVRHCVHFSKGFEYLRFICPMRKDNYEGIEIRPVECFEYIHIEGREHKLSEILKGSLYEKSINDNIMTRDVFIPPTIYEDMFFECTCDNSLTFKNNMIGIRGIMKIHLKKNILYGCDFDHDEKLMKNKTAFTNFYDKQKILPLIGNNNNDDDNNDDDNNNDNNNNDNNNNNNNNNNNNNNNNNNNITCNVTIKKSQVYLGIICPDGYTLYPNDCFKNVIYDNNIIIPLKKIIPHDILYHQDKNKRITFASFTLNINENPPGFTCYCIKDQTNINNPLIVNFHFS"}}, "key": {"[1]": {"target": "Pf12p D1D2 (Plasmodium falciparum) (UniProt C6KSX1)", "assay": "SEC; 100 ug Pf12p or Pf12 incubated with Pf41 at 1:1 molar ratio for 1 h at RT; SD 200 3.2/300 in 20 mM HEPES pH 7.5, 150 mM NaCl; Pf12, Pf12p and Pf41 also run singly; fractions on SDS-PAGE; both purified"}, "[2]": {"target": "Pf41 D1D2 (Plasmodium falciparum) (UniProt Q8I1Y0)", "assay": "SEC; 100 ug Pf12p or Pf12 incubated with Pf41 at 1:1 molar ratio for 1 h at RT; SD 200 3.2/300 in 20 mM HEPES pH 7.5, 150 mM NaCl; Pf12, Pf12p and Pf41 also run singly; fractions on SDS-PAGE; both purified"}, "[3]": {"target": "His-tagged Pf41 (Plasmodium falciparum) (UniProt Q8I1Y0)", "assay": "BLI; His-tagged Pf41 (10 or 20 ug/ml) loaded on Ni-NTA sensors; untagged Pf12 D1D2 or untagged Pf12p D1D2 in solution, 16-500 nM or 31-1000 nM; PBS pH 7.4, 0.1% BSA, 0.05% Tween-20, 25 C; 1:1 fit; both purified"}}, "note": "No constants are given. Whether binding was seen depends on the method and setting."}
{"binder": "B1", "values": [{"measurement": "binding", "setting": "[1]", "result": "no binding"}, {"measurement": "binding", "setting": "[2]", "result": "no binding"}, {"measurement": "binding", "setting": "[3]", "result": "no binding (tested: 500 nM)"}]}
